Reference: PubChem BioAssay AID504791 (Drosophila RNAi Screening Center, 2011)
The screen tested about 23,000 reagents; this is a random part of those with a known target gene and a result. Of all reagents, 199 (0.86%) are marked active. 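Plate-scaled ratios behind the calls are not deposited; printed light signals are raw; many rows marked increased or decreased are still called inactive.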 A number with no mark means an inactive call. The record does not give: the direction of the score.

- Assay: 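Genes whose knock-down strengthens or weakens small-RNA reporter silencing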 (primary screen)
- Cell system: Drosophila S2-derived reporter cells
- Knock-down reagent: long dsRNA against Drosophila genes, about 150-250 ng dsRNA per well (siRNA assay); about 80-120 ng (miRNA assay)
- Timing: about 5 days (siRNA assay); about 4 days (miRNA assay)
- Conditions: copper sulfate induction of reporters: 25 µM (siRNA assay); 200 mM stated (miRNA assay), 1-2 days before reading
- Measured: 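Per-well ratio of Renilla over firefly light, expressed relative to that plate's average ratio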
- Units: stable assay Renilla, run 1 in luminescence; stable assay firefly, run 1 in luminescence
- Rule for the call: 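First-pass picks had plate-scaled ratios over 1.5 for the siRNA assay, over 1.6 for the miRNA assay, or under 0.6; two distinct dsRNAs had to score alike on retest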

For CG13054 [DRSC09935] the deposit lists stable assay Renilla, run 1 = 6826; stable assay firefly, run 1 = 3.09e5.
CG17803 [DRSC15275] showed stable assay Renilla, run 1 = 3591; stable assay firefly, run 1 = 3.37e5.
After knock-down of CG17803 [DRSC22811], the screen gave stable assay Renilla, run 1 = 4998; stable assay firefly, run 1 = 4.96e5.
With knock-down of CG11226 [DRSC11639], the record shows stable assay Renilla, run 1 = 7639; stable assay firefly, run 1 = 3.95e5.
CG15927 [DRSC19742] gave stable assay Renilla, run 1 = 5283; stable assay firefly, run 1 = 5.57e5.
For prage [DRSC17957], the values are stable assay Renilla, run 1 = 6227; stable assay firefly, run 1 = 2.69e5.
Depletion of prage [DRSC17958] gave: stable assay Renilla, run 1 = 6583; stable assay firefly, run 1 = 2.70e5.
prage [DRSC18490] gave stable assay Renilla, run 1 = 7114; stable assay firefly, run 1 = 3.48e5.
Against prage [DRSC18497], the values are stable assay Renilla, run 1 = 6536; stable assay firefly, run 1 = 4.10e5.
For CG34347 [DRSC14047] the deposit lists stable assay Renilla, run 1 = 5996; stable assay firefly, run 1 = 3.20e5.
After knock-down of CG34347 [DRSC14305], the screen gave stable assay Renilla, run 1 = 6954; stable assay firefly, run 1 = 3.68e5.
Depletion of CG34347 [DRSC15104] gave: stable assay Renilla, run 1 = 6459; stable assay firefly, run 1 = 3.58e5.
Knock-down of CG34347 [DRSC15105] gave: miRNA reporter change reporter ratio raised past the hit cutoff; stable assay Renilla, run 1 = 2875; stable assay firefly, run 1 = 2.27e5.
Knock-down of CG34347 [DRSC23044] gave: stable assay Renilla, run 1 = 5983; stable assay firefly, run 1 = 3.45e5.
After knock-down of CG5276 [DRSC15759], the screen gave stable assay Renilla, run 1 = 6735; stable assay firefly, run 1 = 3.67e5.
For Marc [DRSC06614] the deposit lists stable assay Renilla, run 1 = 6266; stable assay firefly, run 1 = 4.03e5.
bon [DRSC16914] showed stable assay Renilla, run 1 = 9074; stable assay firefly, run 1 = 4.97e5.
Spn100A [DRSC14596] showed stable assay Renilla, run 1 = 8186; stable assay firefly, run 1 = 3.78e5.
mre11 [DRSC03570] gave stable assay Renilla, run 1 = 47924; stable assay firefly, run 1 = 1.68e6.
mre11 [DRSC22628] showed stable assay Renilla, run 1 = 3499; stable assay firefly, run 1 = 2.92e5.
Silencing of holn1 [DRSC02827] gave: stable assay Renilla, run 1 = 13834; stable assay firefly, run 1 = 9.75e5.
With knock-down of holn1 [DRSC22822] the results were stable assay Renilla, run 1 = 4790; stable assay firefly, run 1 = 4.34e5.
With knock-down of spin [DRSC07176], the screen gave stable assay Renilla, run 1 = 4663; stable assay firefly, run 1 = 3.91e5.
Against spin [DRSC22271], the entry reads stable assay Renilla, run 1 = 9771; stable assay firefly, run 1 = 6.41e5.
Silencing of CG4998 [DRSC10466] gave: stable assay Renilla, run 1 = 6963; stable assay firefly, run 1 = 3.11e5.
Silencing of CG4998 [DRSC22911] came out at: stable assay Renilla, run 1 = 2247; stable assay firefly, run 1 = 3.33e5.
Knock-down of DIP1 [DRSC20818] came out at: stable siRNA reporter change reporter ratio raised past the hit cutoff; stable assay Renilla, run 1 = 1416; stable assay firefly, run 1 = 60479.
Against spag4 [DRSC02973] the deposit lists stable assay Renilla, run 1 = 7094; stable assay firefly, run 1 = 3.55e5.

In a second layout: results already given.
| gene | dsRNA | stable siRNA reporter change | miRNA reporter change | stable assay Renilla, run 1 | stable assay firefly, run 1 |
| --- | --- | --- | --- | --- | --- |
| CG5276 | DRSC15759 | – | – | 6735 | 3.67e5 |
| Marc | DRSC06614 | – | – | 6266 | 4.03e5 |
| bon | DRSC16914 | – | – | 9074 | 4.97e5 |
| Spn100A | DRSC14596 | – | – | 8186 | 3.78e5 |
